# No constants are given. Whether binding was seen depends on the method and setting. In cells and extracts the contact can be indirect. Some results given as binding are weak or reduced against the parent protein; the word gives no strength. For some assays here: Tags and fused reporters may be left off the sequences shown.
# By UniProt entry, the sequences of proteins in these tests, tags left out.
# UniProt P63104: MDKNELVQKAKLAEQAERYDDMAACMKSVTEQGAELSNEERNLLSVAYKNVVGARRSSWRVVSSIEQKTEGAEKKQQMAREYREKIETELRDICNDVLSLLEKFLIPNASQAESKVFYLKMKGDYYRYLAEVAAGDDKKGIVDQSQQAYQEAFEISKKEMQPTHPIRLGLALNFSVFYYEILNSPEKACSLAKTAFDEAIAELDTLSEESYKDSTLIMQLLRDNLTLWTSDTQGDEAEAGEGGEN
# Columns and labels:
# [1] = target: T1, FoxM1 (human (endogenous in SiHa)) (UniProt Q08050); experiment: co-IP; endogenous proteins in SiHa cell lysate; IP buffer (50 mM Tris-HCl pH 7.5, 150 mM NaCl, 1% Triton X-100, protease inhibitors); precipitated with anti-FoxM1 on Protein G agarose, Western analysis
# T1 sequence: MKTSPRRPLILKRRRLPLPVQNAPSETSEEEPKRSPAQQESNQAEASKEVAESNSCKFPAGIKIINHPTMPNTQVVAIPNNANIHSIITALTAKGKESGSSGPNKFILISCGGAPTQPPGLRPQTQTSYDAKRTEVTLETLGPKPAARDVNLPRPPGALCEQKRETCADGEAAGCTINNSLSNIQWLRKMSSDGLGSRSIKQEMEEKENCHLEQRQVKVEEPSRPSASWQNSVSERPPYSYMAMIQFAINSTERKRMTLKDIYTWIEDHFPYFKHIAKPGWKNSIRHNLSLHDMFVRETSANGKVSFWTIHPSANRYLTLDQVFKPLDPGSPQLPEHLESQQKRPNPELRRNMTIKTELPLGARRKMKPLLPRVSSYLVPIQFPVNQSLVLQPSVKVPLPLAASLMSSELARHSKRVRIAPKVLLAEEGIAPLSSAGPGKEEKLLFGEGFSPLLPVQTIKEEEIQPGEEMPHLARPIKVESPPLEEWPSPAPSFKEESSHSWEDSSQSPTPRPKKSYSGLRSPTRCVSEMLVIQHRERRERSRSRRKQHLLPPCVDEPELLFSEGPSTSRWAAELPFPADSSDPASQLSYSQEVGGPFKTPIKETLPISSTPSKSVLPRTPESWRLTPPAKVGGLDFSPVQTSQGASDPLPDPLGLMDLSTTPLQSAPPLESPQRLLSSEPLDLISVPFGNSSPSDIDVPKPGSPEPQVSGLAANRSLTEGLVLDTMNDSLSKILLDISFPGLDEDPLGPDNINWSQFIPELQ
# [2] = target: T2, Suppressor of fused (Sufu)-GFP (UniProt Q9UMX1); experiment: co-IP; transfected HEK293T lysate; IP buffer (50 mM Tris-HCl pH 7.5, 150 mM NaCl, 1% Triton X-100, protease inhibitors); precipitated with anti-GFP on Protein G agarose, Western analysis
# T2 sequence: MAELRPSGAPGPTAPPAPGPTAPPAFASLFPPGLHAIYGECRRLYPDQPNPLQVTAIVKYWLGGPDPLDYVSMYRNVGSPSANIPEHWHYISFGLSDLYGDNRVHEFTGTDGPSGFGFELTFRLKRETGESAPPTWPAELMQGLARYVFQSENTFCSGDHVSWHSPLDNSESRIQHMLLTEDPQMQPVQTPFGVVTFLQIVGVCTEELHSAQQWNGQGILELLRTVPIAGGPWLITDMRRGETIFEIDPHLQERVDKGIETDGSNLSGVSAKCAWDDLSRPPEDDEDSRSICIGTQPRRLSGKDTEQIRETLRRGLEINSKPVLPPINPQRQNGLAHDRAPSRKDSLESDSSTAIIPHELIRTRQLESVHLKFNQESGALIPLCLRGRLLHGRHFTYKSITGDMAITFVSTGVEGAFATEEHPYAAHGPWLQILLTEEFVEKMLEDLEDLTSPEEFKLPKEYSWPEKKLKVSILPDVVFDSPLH
binding [1],binding [2],Substance
binds,,14-3-3ζ (from UniProt P63104 1-245)
,no binding,14-3-3ζ-DDK (from UniProt P63104 1-245)

# Reference: paper PMC5768398
